# Laboratory results published in PubChem BioAssay AID504467 (National Center for Advancing Translational Sciences (NCATS), 2011).
# Screen size: about 330,000 compounds; about 7,700 (2.3%) were called active. The shares of active, inactive and inconclusive entries below differ from those in the screen. Calls follow the shape of the dose curve; as a rule, active = well fitted inhibition curve with a large enough effect; inconclusive = small, poorly fitted or top-dose-only effect, or effect the other way; inactive = flat fitted curve, though single readings scatter. A potency beside an inconclusive call is a rough fit, not a confirmed value.
# Experiment: qHTS screen for small molecules that inhibit ELG1-dependent DNA repair in human embryonic kidney (HEK293T) cells expressing luciferase-tagged ELG1; also: nearly all actives have a fitted effect of over 55% in size
# Conditions: HEK293T ELG1-luciferase reporter, luminescence, 16 h, DNA damage induced by 5-fluorouridine; activity change, negative = inhibition: at 46.1 µM (top of the series)
# Method in brief: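 5-Fluorouridine DNA damage + compound/DMSO, 2,000 cells/well, 16 h, 37 °C/5% CO2. ONE-Glo, 30 min RT, luminescence. Readout = decrease in reporter signal.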
# % is scaled to controls: 0 for no effect and ±100 for the full control effect; potency is read from the fitted curve at half-maximal effect.
Structure (SMILES),Potency,"activity change, negative = inhibition"
COc1ccc2oc3cc(C)[n+]([O-])c(-c4ccc(Cl)cc4)c3c2c1,"inconclusive: 23.1 µM [inhibitor, partial curve, poor fit]",
CCOc1ccccc1C(=O)Nn1c(C2CCC2)nc2ccccc2c1=O,"inconclusive: 32.6 µM [inhibitor, single point]",
O=C(Nc1nccs1)c1ccc2c(c1)C(=O)N(Cc1cccnc1)C2=O,"inconclusive: 23.1 µM [activator, partial curve, poor fit]",
COc1ccc2oc(C(=O)OCC(=O)Nc3cccc(S(=O)(=O)N4CCOCC4)c3)c(C)c2c1,,inactive: -2.31%
O=C(Nc1ccc(S(=O)(=O)Nc2ccccc2)cc1)c1ccc(CN2CCOCC2)cc1,,inactive: -23.7%
CCOc1ccc(CCNc2ccc3nnc(-c4ccccc4)n3n2)cc1OCC,"inconclusive: 9.2 µM [inhibitor, partial curve]",
CCCNC(=O)Cn1cc(S(=O)(=O)N2CCCC2)c(S(=O)(=O)N2CCCC2)c1,"inconclusive: 20.6 µM [activator, partial curve, poor fit]",
Cc1ccc(CNC(=O)CSc2nnnn2C)cc1,"inconclusive: 18.4 µM [activator, single point]",
C=CCN1C(=O)C(=O)N(Cc2nc3ccccc3s2)C1=O,"inconclusive: 20.6 µM [activator, partial curve]",
CCCCn1nc(C(=O)N(C)C2CCCCC2)c2ccccc2c1=O,"inconclusive: 18.3 µM [inhibitor, single point]",
CC(C(=O)O)c1ccc(C(=O)c2ccccc2)s1 (centres undefined),"inconclusive: 25.1 µM [activator, partial curve]",
Cc1nc(NC(=O)CSc2nc3ccccc3s2)sc1C(=O)N(C)C,,inactive: -18.9%
CCCCN(C)C(=O)c1nc2ccccn2c1CN1CCC[C@H]1C(=O)OC,,inactive: -4.21%
COc1ccc(OCC(=O)NNC(=O)Cn2c(=O)cnc3ccccc32)cc1,,inactive: 25.1%
O=C(CCN1C(=O)/C(=C/c2ccccc2Cl)SC1=S)NCCCN1CCOCC1,,inactive: 3%
CC(C)CCN1CC(C(=O)NCCC2=CCCCC2)CC1=O (centres undefined),"inconclusive: 16.4 µM [activator, single point]",
CC(C)Oc1cccc(C(=O)Nc2ccc(NC(=O)c3ccco3)cc2)c1,"inconclusive: 20.6 µM [inhibitor, single point]",
CC(=O)Nc1cccc(N=NN2CCCCC2)c1,"inconclusive: 23.1 µM [activator, single point]",
COc1ccc(CNC(=O)CCC(=O)c2ccc(F)cc2)cc1OC,"inconclusive: 16.4 µM [activator, partial curve, poor fit]",
CCOC(=O)c1cn(-c2nc(-c3ccc(Cl)c(Cl)c3)cs2)c2c(F)c(N3CCOCC3)c(F)cc2c1=O,"inconclusive: 6.51 µM [inhibitor, single point]",
N#Cc1c(NC(=O)COC(=O)c2nccnc2N)sc2c1CCCC2,"inconclusive: 13 µM [activator, partial curve, poor fit]",
COc1ccccc1C(=O)N/N=C/C(C)=C/c1ccccc1,"inconclusive: 16.4 µM [activator, single point]",
CSc1ccc(/C=C(/NC(=O)c2ccc(C)cc2)C(=O)Nc2cccc(C)c2)cc1,,inactive: 15.6%

# Of the compounds above, these contain two or more sulfur atoms:
Structure (SMILES),Potency,"activity change, negative = inhibition"
CCCNC(=O)Cn1cc(S(=O)(=O)N2CCCC2)c(S(=O)(=O)N2CCCC2)c1,"inconclusive: 20.6 µM [activator, partial curve, poor fit]",
Cc1nc(NC(=O)CSc2nc3ccccc3s2)sc1C(=O)N(C)C,,inactive: -18.9%
O=C(CCN1C(=O)/C(=C/c2ccccc2Cl)SC1=S)NCCCN1CCOCC1,,inactive: 3%

# Additional structures.

Structure (SMILES),Potency,"activity change, negative = inhibition"
O=C(CN1CCN(Cc2ccc(Cl)cc2)C1=O)NCCCN1CCN(c2ccc(F)cc2)CC1,"inconclusive: 10.3 µM [inhibitor, partial curve]",
Cn1cnc2cc(NC(=O)COc3ccccc3)ccc21,"inconclusive: 20.6 µM [activator, partial curve]",
CCCCc1cn([C@@H](CCCCN)C(=O)N2CCNCC2)nn1,"inconclusive: 29.1 µM [activator, partial curve, poor fit]",
COc1cccc(NS(=O)(=O)c2ccc3[nH]cc(C(=O)NC4CC4)c(=O)c3c2)c1,,inactive: -17.7%
COc1ccc(NC(=O)c2cccc(F)c2)cc1Cl,"inconclusive: 8.2 µM [activator, partial curve]",
Cc1ccc(/C=N/NC(=O)c2cc3c(s2)CCCC3)o1,"inconclusive: 35.5 µM [activator, single point]",
c1cnc(SCCOc2cccc3ccccc23)nc1,"inconclusive: 18.4 µM [activator, partial curve]",
CC1Cc2cc(/C(O)=C3/C(=O)C(=O)N(CCN4CCOCC4)C3c3ccc([N+](=O)[O-])cc3)ccc2O1 (centres undefined),,inactive: 19%
Cc1cc(=O)[nH]c(SCC(=O)NN(c2ccccc2)c2ccccc2)n1,"inconclusive: 16.4 µM [activator, single point]",
O=C(CSc1nc2cc(Cl)ccc2s1)c1ccco1,"inconclusive: 31.6 µM [activator, single point]",
Cn1c(NC(=O)c2ccc(F)cc2)nc2ccccc21,"inconclusive: 2.59 µM [activator, full curve]",
CN(C)c1ccc(S(=O)(=O)N2CCCCC2)cc1NC(=O)C1=NN(c2ccccc2)C(=O)CC1,,inactive: 9.13%
NC(=O)c1cc(C(=O)c2cccc(Cl)c2Cl)c[nH]1,,inactive: -7.14%
CC(C)(C)[C@H]1C=C(C(N)=O)O[C@@H](OCc2ccc(CO)cc2)C1,"inconclusive: 23.1 µM [activator, single point]",
CC1Oc2ccccc2C=C1/C=N/Nc1ccc(C(=O)O)cc1 (centres undefined),"inconclusive: 0.73 µM [activator, full curve]",
CCCNc1nc(Nc2ccc(C)cc2)nc(N2CCCC2)n1,"inconclusive: 23.1 µM [inhibitor, single point]",
CCCC1CCC(c2ccc(OCC)cc2)=CC1=O (centres undefined),"inconclusive: 16.4 µM [activator, partial curve]",
CCCc1[nH]n(-c2ccc([N+](=O)[O-])cc2)c(=O)c1C=NCCCn1ccnc1,,inactive: -6.3%
Cc1cc(C)cc(NC(=O)OCCN2CCN(Cc3ccccc3)CCC2=O)c1,"inconclusive: 0.231 µM [inhibitor, single point]",
Cc1c(CCC(=O)N[C@@H](C)C(=O)O)c(=O)oc2c(C)c3oc4c(c3cc12)CCCC4,,inactive: 11.8%
COc1ccc(C(=O)NCc2ccc(-c3nc4ccccc4s3)cc2)cc1,"inconclusive: 12.6 µM [activator, partial curve]",
COc1ccc(CN2CCC(C(=O)c3cccc(Cl)c3)CC2)cc1,"inconclusive: 3.16 µM [activator, single point]",
CCOc1cc(NC(=O)c2ccco2)c(OCC)cc1NC(=O)c1ccco1,,inactive: -9.33%

Structure (SMILES),Potency,"activity change, negative = inhibition"
C=C(C)CSc1nnc(-c2cccc(Cl)c2)n1N,"inconclusive: 29.1 µM [activator, single point]",
O=C(c1ccc2c(c1)OCCO2)C1CCN(S(=O)(=O)c2cccc(F)c2)CC1,"inconclusive: 29.1 µM [inhibitor, single point]",
COc1cc2c(cc1OC)C(C)N(C(=O)c1cccs1)CC2 (centres undefined),"inconclusive: 16.4 µM [inhibitor, single point]",
COCCNC(=O)[C@@H]1CSC2c3ccccc3C(=O)N21 (some centres undefined),,inconclusive: 41.7% [activator]
C#Cc1ccc([C@@H]2C=C(C(=O)NC3CC3)O[C@H](OCCCCO)C2)cc1,"inconclusive: 14.6 µM [activator, single point]",
Cc1nnc(NC(=O)C2=COCCO2)s1,"inconclusive: 5.17 µM [activator, partial curve]",
CCCN1CCC(=O)N(CCSc2ccc(OC)cc2)CC1,"inconclusive: 6.51 µM [inhibitor, single point]",
COc1cc(CCC(=O)Nc2ccc(S(=O)(=O)N3CCCC3)cc2)cc(OC)c1OC,"inconclusive: 25.9 µM [inhibitor, single point]",
O=C(Nc1ccc(-c2nc3ccccc3s2)c(OC(=O)c2ccccc2)c1)c1ccccc1,"inconclusive: 2.59 µM [activator, partial curve]",
Cc1cc(Cl)c2oc(C(=O)NCC(C)(C)N3CCOCC3)c(C)c2c1,"inconclusive: 10.3 µM [activator, partial curve]",
CCSc1nc2sc3c(c2c(=O)[nH]1)CC(C)(C)OC3,"inconclusive: 1.3 µM [inhibitor, single point]",
Fc1ccc2c(-c3cccc(C(F)(F)F)c3)c(-c3ccccc3)ncc2c1,"inconclusive: 0.231 µM [inhibitor, single point]",
COc1ccc([N+](=O)[O-])cc1N(CC(O)CN(CC(C)C)CC(C)C)S(=O)(=O)c1ccccc1 (centres undefined),,inactive: 7.01%
COC(=O)C1=C(C)N(Cc2ccccc2)C(=O)N[C@H]1c1cccc(C(F)(F)F)c1,,inactive: 3.16%
CCC(C)C(NC(=O)OC(C)(C)C)C(=O)NC(C(=O)N1CCCC1C(N)=O)C(C)CC (centres undefined),,inactive: 0%
CCN(CC)C(=O)CSc1nnc([C@@H](N)C(C)C)o1,,inactive: 14.9%
Cn1c(=O)n(C)c2cc(S(=O)(=O)Nc3ccccc3)ccc21,"inconclusive: 23.1 µM [activator, single point]",
COc1ccc(S(=O)(=O)N2CCOCC2)cc1NC(=O)CCc1cc(OC)c(OC)c(OC)c1,"inconclusive: 0.116 µM [inhibitor, full curve]",
Cn1c(=O)c([N+](=O)[O-])c(NCCc2ccccc2)c2ccccc21,,inactive: -22.8%
COc1ccc(Oc2nccc(OC)c2C#N)cc1,"inconclusive: 29.1 µM [activator, single point]",
Cc1ccc(Cn2nnnc2CN2CCC(c3nc4ccc(Cl)cc4[nH]3)CC2)cc1,active: 23.1 µM,
Cn1c(=O)c2[nH]c(N3CCCCC3)nc2n(C)c1=O,,inactive: -3.71%
Cc1ccc(S(=O)(=O)N2CCOCC2)cc1NC(=O)CNC(C)c1ccccc1 (centres undefined),"inconclusive: 13 µM [inhibitor, partial curve]",

# Copied from the list:
# Under activity change, negative = inhibition, O=C(Nc1ccc(S(=O)(=O)Nc2ccccc2)cc1)c1ccc(CN2CCOCC2)cc1 has inactive: -23.7%
# Under Potency, CC(C)Oc1cccc(C(=O)Nc2ccc(NC(=O)c3ccco3)cc2)c1 has inconclusive: 20.6 µM [inhibitor, single point]
